US20240142458A1, “FLUORESCENT PROBES FOR QUANTIFICATION OF FREE COPPER” (TECHNISCHE UNIVERSITÄT BERLIN, priority 2020, published 2024)
Some entries share one result that the patent states for a list of compounds.

Test: Metal-dependent changes of absorbance and fluorescence properties, cell-free
Conditions: 10 μM probe, 40 μM metal, pH 7.4
Procedure: (§1) FIG. 1: Metal-dependent changes of p-H8TPPA absorbance and fluorescence properties. • 10 μM p-H8TPPA dilutions were treated with various metal solutions (final concentration 40 μM) before recording (A) absorbance, (B) fluorescence excitation (⋅Em.650 nm) and (C) fluorescence emission (⋅⋅Exc.415 nm) spectra. Data are representative for three independent experiments.
as §1, with “3:” for “1:”, “m-H8TPPA” for “p-H8TPPA”
Aiming to use arylphosphonate-tethered porphyrins as real-time cellular metal fluorescence sensors, we first characterized their metal-responsiveness under cell-free conditions. p-H8TPPA (see FIG. 1) and m-H8TPPA (see FIG. 3), were pretreated with various bivalent metal ions at a pH close to the cellular milieu (pH 7.4) before recording absorption and fluorescence spectra. […] Despite of their restricted fluorescence intensity, the fluorescence emission patterns of all the aforementioned metal-treated arylphosphonate-tethered porphyrins seemed to be […] almost indistinguishable from the buffer-controls (see FIG. 1C, FIGS. 2 and 4). […]

Row | SMILES | bathochromic broadening of absorption spectrum after Co^2+ treatment
1 | O=P(O)(O)c1cccc(-c2c3nc(c(-c4cccc(P(=O)(O)O)c4)c4ccc([nH]4)c(-c4cccc(P(=O)(O)O)c4)c4nc(c(-c5cccc(P(=O)(O)O)c5)c5ccc2[nH]5)C=C4)C=C3)c1 [m-H8TPPA, 5,10,15,20-tetrakis [m-phenylphosphonic acid] porphyrin] | up to 434 nm
2 | O=P(O)(O)c1ccc(-c2c3nc(c(-c4ccc(P(=O)(O)O)cc4)c4ccc([nH]4)c(-c4ccc(P(=O)(O)O)cc4)c4nc(c(-c5ccc(P(=O)(O)O)cc5)c5ccc2[nH]5)C=C4)C=C3)cc1 [p-H8TPPA, 5,10,15,20-Tetrakis [p-phenylphosphonic acid] porphyrin] | up to 434 nm
